The values that follow come from paper PMC9264838.

Sequences of proteins named here, by UniProt entry; tags and fusion partners are left off.
UniProt P08238: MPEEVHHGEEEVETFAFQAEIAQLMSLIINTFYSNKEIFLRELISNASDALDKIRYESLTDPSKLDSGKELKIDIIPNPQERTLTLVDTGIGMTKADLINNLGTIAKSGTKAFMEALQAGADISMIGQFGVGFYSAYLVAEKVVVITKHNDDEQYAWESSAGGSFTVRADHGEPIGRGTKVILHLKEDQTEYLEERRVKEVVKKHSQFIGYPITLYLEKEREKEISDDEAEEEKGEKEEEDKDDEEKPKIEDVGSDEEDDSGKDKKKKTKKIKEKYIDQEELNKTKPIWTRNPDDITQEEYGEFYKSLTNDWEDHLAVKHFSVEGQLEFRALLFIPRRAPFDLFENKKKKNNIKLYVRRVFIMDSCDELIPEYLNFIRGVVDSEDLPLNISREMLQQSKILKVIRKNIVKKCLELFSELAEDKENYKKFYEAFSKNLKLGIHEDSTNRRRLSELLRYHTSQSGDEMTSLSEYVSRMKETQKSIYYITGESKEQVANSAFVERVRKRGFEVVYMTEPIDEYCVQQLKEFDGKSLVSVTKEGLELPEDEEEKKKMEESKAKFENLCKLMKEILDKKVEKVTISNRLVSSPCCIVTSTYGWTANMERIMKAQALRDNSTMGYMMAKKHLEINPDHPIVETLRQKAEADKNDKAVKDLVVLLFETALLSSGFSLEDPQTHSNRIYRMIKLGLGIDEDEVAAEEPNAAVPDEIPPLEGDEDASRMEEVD
UniProt P08670: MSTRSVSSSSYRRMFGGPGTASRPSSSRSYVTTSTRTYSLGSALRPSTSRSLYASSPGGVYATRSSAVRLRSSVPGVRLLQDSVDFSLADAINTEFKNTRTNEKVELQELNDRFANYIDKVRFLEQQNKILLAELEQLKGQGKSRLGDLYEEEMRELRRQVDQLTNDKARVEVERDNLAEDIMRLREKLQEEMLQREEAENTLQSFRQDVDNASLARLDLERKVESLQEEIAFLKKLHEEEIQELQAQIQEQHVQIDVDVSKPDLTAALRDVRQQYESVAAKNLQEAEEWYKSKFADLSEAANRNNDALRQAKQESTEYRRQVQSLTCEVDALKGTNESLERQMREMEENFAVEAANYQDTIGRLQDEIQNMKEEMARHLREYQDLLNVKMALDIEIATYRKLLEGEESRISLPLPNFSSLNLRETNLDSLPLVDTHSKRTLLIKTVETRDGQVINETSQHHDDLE

No constants are given. Whether binding was seen depends on the method and setting. Binding seen in cells or lysates may run through a third protein. A yes stands for co-enrichment or nearness to the bait. Other partners may have been found.

The target of the experiment is heat shock protein 90 beta (Hsp90ab1) (human (endogenous in C28/I2)) (UniProt P08238). The experiment can be described thus: affinity purification with mass spectrometry; immunoprecipitation with an antibody against Hsp90ab1 on protein A sepharose, on-bead trypsin/LysC digestion, LC-MS/MS; sample named as tumor cells and their ECM; search against the Uniprot mouse protein database.

With vimentin (from UniProt P08670 1-466), the binding entry was “binds”.
